Assay results taken from patent US20110230374A1 (UNIVERSITY OF MARYLAND BALTIMORE, published 2011).
These are yes or no findings as the source states them, for the method shown. Some entries that bind do so weakly or less than the wild type.

Tests used:
hen egg lysozyme [1] = target: T1, hen egg lysozyme (hen, UniProt P00698 19-147); assay: yeast surface display flow cytometry: biotinylated HEL + SA-PE against anti-HA Alexa 488
T1 construct: Soluble monovalent antigen; Biotinylated for YSD titration; unlabelled analyte in SPR and titrant in ITC; also called HEL

hen egg lysozyme [2] = target: T1, hen egg lysozyme; assay: SPR, biotin-VLRB.CTMut.5 captured on NeutrAvidin, 2-fold HEL dilutions 7.66-0.00299 nM injected

B1: VLRB.CTMut.5 (other)
chain: ACPSQCSCDQTTVYCHNRRLTSVPTGIPTTTQVLYLYDNQITKLEPGVFDRLTKLTHLSLGYNQLKSVPRGAFDNLKSLTHIWLLNNPWDCQCTDILYLKNWIVQHASIVNPHTHGGVDNVKCSGTNTPVRAVTEASTSPSKC
- binding (hen egg lysozyme [1]): binds
- binding (hen egg lysozyme [2]): binds
